Library screening results

Sequences of proteins named here, by UniProt entry; tags and fusion partners are left off.
UniProt E9BF75, entry or part of it: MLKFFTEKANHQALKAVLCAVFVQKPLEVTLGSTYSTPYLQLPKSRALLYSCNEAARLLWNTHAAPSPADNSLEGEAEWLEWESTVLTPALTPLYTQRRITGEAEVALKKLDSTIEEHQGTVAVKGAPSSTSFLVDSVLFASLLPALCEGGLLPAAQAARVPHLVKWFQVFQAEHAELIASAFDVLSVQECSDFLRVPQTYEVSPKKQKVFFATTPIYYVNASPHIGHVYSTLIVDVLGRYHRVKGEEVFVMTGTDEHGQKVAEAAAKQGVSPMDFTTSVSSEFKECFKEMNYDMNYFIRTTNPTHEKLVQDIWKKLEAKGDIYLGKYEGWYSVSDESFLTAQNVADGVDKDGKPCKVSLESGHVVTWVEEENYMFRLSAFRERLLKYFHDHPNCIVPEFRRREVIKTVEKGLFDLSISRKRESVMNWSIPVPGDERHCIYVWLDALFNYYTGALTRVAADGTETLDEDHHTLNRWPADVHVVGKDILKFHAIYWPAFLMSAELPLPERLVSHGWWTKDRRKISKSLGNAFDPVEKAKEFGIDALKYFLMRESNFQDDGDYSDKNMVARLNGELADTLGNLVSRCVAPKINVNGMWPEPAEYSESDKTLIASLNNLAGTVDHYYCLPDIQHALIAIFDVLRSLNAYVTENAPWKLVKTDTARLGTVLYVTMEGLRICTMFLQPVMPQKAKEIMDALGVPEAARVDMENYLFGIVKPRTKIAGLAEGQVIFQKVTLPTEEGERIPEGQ

Data taken from ChEMBL document CHEMBL3988442, “University of Dundee, Small-Polar-MMV Screening Library” (2021).

LdMetRS: 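Methionyl-tRNA synthetase (putative), Leishmania donovani (UniProt E9BF75). Primary screen of methionyl-tRNA synthetase; the read-out is not stated. The test concentration is not given. Values are per cent inhibition. About 68,000 compounds were tested under these conditions; 0.035% (about 24) showed 50% or more at least once.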
Mtb heat-shock: 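Assay on Mycobacterium tuberculosis, filed only as a heat shock assay from Cornell; the read-out is not stated. The concentration is filed as 10 mM, unlikely as a test dose, so the dose is not known. Direction is inferred from retests: higher values go with stronger inhibition. About 69,000 compounds were tested under these conditions; 1.4% (about 930) showed 50% or more at least once.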

All values are in %. The controls that fix the scale are not given in the record; negative values are as filed. This is an unselected part of the compounds tested. A dash means the value is not listed here; it may have been measured.

SMILES	LdMetRS	Mtb heat-shock
CN(C)CCN1CCO[C@@H]2CN(C(=O)Cc3ccsc3)CC[C@@H]2C1	4.134%	-
CNC(=O)C1CCCN(C(=O)OC)C1 (configuration not stated)	18.05%	1.626%
Cc1nnc(NC(=O)NCc2ccc(N3CCN(C)CC3)nc2)s1	9.449%	-4.383%
O=C1CC[C@H]2[C@H](CCN2C(=O)c2ccc[nH]2)N1CCN1CCOCC1	3.75%	-
CN1CCCN(C(=O)c2cc(-c3cc[nH]n3)n3ccccc23)CC1.O=C(O)C(F)(F)F.O=C(O)C(F)(F)F	-	-29.58%
CN(Cc1cc(-c2ccccc2)no1)C1CCCN(c2cccnn2)C1 (configuration not stated)	20.65%	3.704%
Cc1oc(CN(C)C(=O)c2ccc(C(F)(F)F)cc2)cc1C(=O)O	2.439%	7.927%
CCC(CO)NCc1ccc(-c2ccc(F)c(Cl)c2)o1.Cl (configuration not stated)	-	20.11%
Cn1cc(CN2C[C@@H](F)[C@@H](OCc3nc4cnccc4[nH]3)C2)cn1	10.53%	-42.33%
[H][C@@]12CCN(C(=O)c3cnoc3C)C[C@]1([H])[C@@H](CN1CCCC1)OC2	-	6.346%
CC(NCc1ccncc1)c1ccc(N2CCN(C)CC2)c(F)c1 (configuration not stated)	5.85%	-
CCOC1COC2(CCN(C(=O)c3cccc(C)n3)CC2)C1 (configuration not stated)	9.29%	-
O=C(O)C(F)(F)F.[H][C@@]12CN(Cc3nccs3)C[C@]1([H])C(=O)N(c1cncnc1)C2	-	-2.915%
CC(C)Sc1ncccc1C(=O)NCc1ccc(O)cc1	15.38%	-8.035%
Cc1cc(F)c2c(c1)CCCN2S(=O)(=O)c1ncn(C)c1Cl	7.958%	-19.02%
Cc1nc(C)c(CNCc2nnc3n2CCCC3C(F)(F)F)s1 (configuration not stated)	9.971%	3.72%
CC(O)CN1CCN(C(=O)CN(C)c2ccc(C#N)cn2)CC1 (configuration not stated)	-7.107%	-3.9%
Cl.c1cc(CNCc2ccc3c(c2)CCO3)cc(N2CCOCC2)n1	-	-10.75%
Cc1ccc(N2CCc3c(CN(C)Cc4ccco4)cncc3C2)nn1	4.11%	-
O=c1[nH]c2cc3c(cc2cc1CN1CCCC1c1ccccn1)OCO3 (configuration not stated)	12.32%	11.37%
c1nc2c(c(C3CCOC3)n1)CCN(Cc1ccoc1)CC2 (configuration not stated)	3.583%	-66.88%
O=C(O)C(F)(F)F.[H][C@@]12C[C@H](C(=O)N3CCOCC3)[C@@]([H])(CN(c3ncc(CC)cn3)C1)O2	-	30.59%
COCCN1CCCC1c1nccnc1Nc1nc(C)cs1 (configuration not stated)	19.23%	0.3153%
CC1CCN(C(CNC(=O)CCn2cccn2)c2cccs2)CC1 (configuration not stated)	8.78%	-3.394%
CC(c1cccc(-c2nccn2CCc2ccccn2)c1)N(C)C (configuration not stated)	-2.29%	-27.93%
CC1(C)CC(N(Cc2cccnc2)Cc2cccnc2)CC(C)(C)N1	11.53%	-
Cc1cn2c(=O)c(-c3ccnc(N4CCC[C@@H]4CO)n3)cnc2s1	18.2%	-12.75%
O=C(c1ccno1)N1CCc2ncnc(-c3ccncc3)c2CC1	9.29%	-
CC(C)CN1CCC(c2nnc(CN3CCCC3)n2C2CC2)CC1	-	3.637%
CC(C)S(=O)(=O)c1nnc(CCNC(=O)OC(C)(C)C)o1	4.564%	-13.48%
O=C1N(Cc2ccc(F)c(F)c2)CCCC1(O)CNCc1ncc[nH]1 (configuration not stated)	13.35%	-25.39%
Fc1ccc(-c2nnc(CN3CCCC3Cn3cccn3)o2)cc1 (configuration not stated)	20.45%	9.295%
O=C(Nc1ccccc1)C1CN(C(=O)c2cccs2)CC12CCOCC2 (configuration not stated)	12.05%	-16.11%
O=c1ccc2c([nH]1)CCN(S(=O)(=O)c1ccc3c(c1)CCCC3)C2	7.914%	-1.703%
COc1cc(C(C)=O)ccc1OCCNCc1ccco1.Cl	-	9.048%
Cc1occc1C(=O)N1CCc2c(CNS(C)(=O)=O)cncc2C1.Cl	-	-36.34%
COCc1nc(CNc2cc(C)nc(N3CCCCC3)n2)no1	10.53%	22.65%
CC(=O)N1CCC2(CC1)c1ncc(-c3ccc(F)cc3)n1CCN2C	12.92%	18.56%
Cc1nc(CN(C)C(=O)c2cc(C)sc2NC(=O)C(C)(C)C)no1	18.37%	-27.06%
CCOCc1nnc(NCc2cccnc2)o1	8.505%	3.474%
CC(C)c1nn(C)c(N2CCOCC2)c1CNC(C)c1ccccn1 (configuration not stated)	24%	-4.961%
CCN1CC2(CCN(C(=O)N(C)C)CC2)COc2ccccc2S1(=O)=O	9.645%	-27.03%
COCCCN(C)C(=O)c1cccc(Nc2cnccn2)c1	1.897%	-8.195%
CCCc1cc(C(=O)NC(C)c2ccccc2)n(C)n1 (configuration not stated)	-5.28%	12.32%
CCOCc1ncn2c1CN(C(=O)c1ccoc1)CC2	14.29%	-2.828%
O=C(CS(=O)(=O)c1ncccc1Cl)NC1CCCc2ccccc21 (configuration not stated)	1.985%	57.06%
CN(Cc1ccccn1)C(=O)C(c1ccccc1)N1CCSCC1 (configuration not stated)	24.4%	-36.98%
CN1Cc2ccccc2NC(=O)C12CCNC2 (configuration not stated)	15.43%	-38.28%
CCn1ncc2c1C(COC)N(C(=O)c1ccsc1)CC2.O=C(O)C(F)(F)F (configuration not stated)	-	29.92%
c1ccc(NC[C@@H]2CCC[C@@H]3CN(Cc4cc[nH]n4)C[C@@H]32)nc1	5.602%	-
O=C1CC(C(=O)NCCN2CCOC2=O)c2cc(F)ccc2N1 (configuration not stated)	15.23%	9.857%
Cc1noc(CCNS(=O)(=O)N2CCCC2c2ccc(C)o2)n1 (configuration not stated)	5.923%	-12.17%
Cc1nc(C2CCCN2C(=O)CCCOc2cccc(F)c2)no1 (configuration not stated)	7.754%	-19.85%
CC[C@@H]1C[C@H](C(F)(F)F)n2nc(C3CCN(S(=O)(=O)CC)CC3)cc2N1	5.178%	-7.766%
COC(=O)CCC(=O)N1CCc2nc(C(=O)N3CCOCC3)sc2CC1	11.23%	-1.858%
CC(=O)N1CCCC1C(=O)N1CCC(=Cc2cccc(F)c2)CC1 (configuration not stated)	12.03%	-15.8%
Cc1cn(CC(=O)NC2CCN(C(C)C)CC2)c2ccccc12	19.1%	-24%
Cc1nc(-c2ccc(CC(=O)N3CCN(C(=O)C4CC4)CC3)cc2)cs1	-	-5.943%
Cc1cc(CNC(=O)c2cccs2)ccc1S(C)(=O)=O	8.361%	-25.86%
CC(C)n1ncc2c1NC(=O)CC21C(=O)Nc2cc(Cl)cc(Cl)c21 (configuration not stated)	14.85%	12.24%
[H][C@]12CC[C@]([H])(CN(C(=O)N(C)C)C1)N(Cc1nnc(-c3ccco3)o1)C2	-	3.686%
NCC1CCCN(c2nc(-c3ccccc3)nc3c2CCNCC3)C1 (configuration not stated)	24.11%	69.25%
[H][C@]12CN(C(=O)C3CCOCC3)CCN1C(=O)N(Cc1ccc(F)cc1)C2	-	2.861%
Cc1nccn1C1CCCN(C(=O)c2ccc3nnc(C)n3c2)C1 (configuration not stated)	3.631%	-19.73%
O=C(O)C(F)(F)F.[H][C@@]12CCN(Cc3nccs3)C[C@]1([H])O[C@H](C(=O)N(C)C)C2	-	-1.901%
COc1ccc(C[C@H]2CN(c3cc(OC)ncn3)CC[C@H]2OC)cc1.O=C(O)C(F)(F)F	-	-56.88%
Cc1nn(C2CCCC2)c2nc(C(C)(C)CN3CCN(C)CC3)[nH]c12	17.14%	11.92%

For reference, 7 entries once more:

SMILES,LdMetRS,Mtb heat-shock
O=C(c1ccno1)N1CCc2ncnc(-c3ccncc3)c2CC1,9.29%,-
Cc1nc(C2CCCN2C(=O)CCCOc2cccc(F)c2)no1 (configuration not stated),7.754%,-19.85%
Cc1nccn1C1CCCN(C(=O)c2ccc3nnc(C)n3c2)C1 (configuration not stated),3.631%,-19.73%
[H][C@]12CN(C(=O)C3CCOCC3)CCN1C(=O)N(Cc1ccc(F)cc1)C2,-,2.861%
O=C1CC(C(=O)NCCN2CCOC2=O)c2cc(F)ccc2N1 (configuration not stated),15.23%,9.857%
Cc1nc(-c2ccc(CC(=O)N3CCN(C(=O)C4CC4)CC3)cc2)cs1,-,-5.943%
CC[C@@H]1C[C@H](C(F)(F)F)n2nc(C3CCN(S(=O)(=O)CC)CC3)cc2N1,5.178%,-7.766%